# Experimental data: PubChem BioAssay AID1259254 (NCATS, 2017)
# Assay: 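Genome-wide screen for genes that prevent DNA re-replication in cancer cells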 (primary screen)
# Cell system: human HCT116 colorectal cancer cells
# Knock-down reagent: single siRNA against human genes
# Timing: 3 days
# Read-out: 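Nuclei stained with Hoechst and imaged; cell-cycle phase assigned by DNA content; G2 share scaled per plate, non-targeting siRNA 0%, GMNN siRNA 100%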
# Direction: G2 robust z-score and G2 cells, % of GMNN control: higher = more G2 cells, more excess DNA replication
# Active means: 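Active siRNAs have a G2 robust z of 5 or more median absolute deviations over the median, which in these data means about 38% or higher of GMNN control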
# In all, the deposit lists about 59,000 reagents; this is a random part of them. About 1,550 of them (2.6%) count as active. 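G2 share is only a proxy for re-replication; each gene was hit by three separate siRNAs, and active genes were retested.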 Reagents against one gene are numbered here. Not all columns of the deposit are shown. No sequences are given here. Not given: the amount of reagent.
Gene,reagent,G2 robust z-score,"G2 cells, % of GMNN control",activity call
SLC66A1LP,1,0.13,3.88,inactive
SLC66A1LP,2,-0.898,-3.35,inactive
SLC66A1LP,3,-0.41,0.0825,inactive
LINC02910 (long intergenic non-protein coding RNA 2910),1,1.47,13.3,inactive
LINC02910 (long intergenic non-protein coding RNA 2910),2,-0.688,-1.87,inactive
LINC02910 (long intergenic non-protein coding RNA 2910),3,0.112,3.76,inactive
TLN2 (talin 2),1,-0.808,-2.72,inactive
TLN2 (talin 2),2,0.221,4.52,inactive
TLN2 (talin 2),3,-0.494,-0.507,inactive
SEPTIN5 (septin 5),1,-0.443,-0.152,inactive
SEPTIN5 (septin 5),2,0.336,5.33,inactive
SEPTIN5 (septin 5),3,10.9,80,active
TGFB1I1 (transforming growth factor beta 1 induced transcript 1),1,0.848,8.93,inactive
TGFB1I1 (transforming growth factor beta 1 induced transcript 1),2,-1.09,-4.72,inactive
TGFB1I1 (transforming growth factor beta 1 induced transcript 1),3,0.819,8.73,inactive
RINL (Ras and Rab interactor like),1,-0.282,0.984,inactive
RINL (Ras and Rab interactor like),2,-1.27,-5.97,inactive
RINL (Ras and Rab interactor like),3,1.15,11.1,inactive
"CNP (2',3'-cyclic nucleotide 3' phosphodiesterase)",1,2.68,21.8,inactive
"CNP (2',3'-cyclic nucleotide 3' phosphodiesterase)",2,-1.02,-4.18,inactive
"CNP (2',3'-cyclic nucleotide 3' phosphodiesterase)",3,-0.447,-0.179,inactive
CDKL2 (cyclin dependent kinase like 2),1,2.84,22.9,inactive
CDKL2 (cyclin dependent kinase like 2),2,-0.986,-3.97,inactive
CDKL2 (cyclin dependent kinase like 2),3,-0.74,-2.24,inactive
ATAD5 (ATPase family AAA domain containing 5),1,0.524,6.66,inactive
ATAD5 (ATPase family AAA domain containing 5),2,0.289,5,inactive
ATAD5 (ATPase family AAA domain containing 5),3,0.603,7.21,inactive
TTC14 (tetratricopeptide repeat domain 14),1,1.54,13.8,inactive
TTC14 (tetratricopeptide repeat domain 14),2,-0.0467,2.64,inactive
TTC14 (tetratricopeptide repeat domain 14),3,2.51,20.6,inactive
ZBED1 (zinc finger BED-type containing 1),1,-1.28,-6.02,inactive
ZBED1 (zinc finger BED-type containing 1),2,3.82,29.9,inactive
ZBED1 (zinc finger BED-type containing 1),3,2.31,19.2,inactive
BMS1P1 (BMS1 pseudogene 1),1,-0.53,-0.759,inactive
BMS1P1 (BMS1 pseudogene 1),2,-0.299,0.862,inactive
BMS1P1 (BMS1 pseudogene 1),3,-0.945,-3.68,inactive
SOX15 (SRY-box transcription factor 15),1,2.43,20.1,inactive
SOX15 (SRY-box transcription factor 15),2,0.836,8.85,inactive
SOX15 (SRY-box transcription factor 15),3,0.519,6.62,inactive
PTGR3 (prostaglandin reductase 3),1,3.83,29.9,inactive
PTGR3 (prostaglandin reductase 3),2,0.532,6.71,inactive
PTGR3 (prostaglandin reductase 3),3,1.22,11.5,inactive
ATOSB (atos homolog B),1,-0.235,1.32,inactive
ATOSB (atos homolog B),2,0.0721,3.47,inactive
ATOSB (atos homolog B),3,0.369,5.56,inactive
"RBSN (rabenosyn, RAB effector)",1,-0.324,0.685,inactive
"RBSN (rabenosyn, RAB effector)",2,1.08,10.6,inactive
"RBSN (rabenosyn, RAB effector)",3,-0.274,1.04,inactive
SLC25A38P1 (SLC25A38 pseudogene 1),1,0.661,7.62,inactive
SLC25A38P1 (SLC25A38 pseudogene 1),2,1.48,13.4,inactive
SLC25A38P1 (SLC25A38 pseudogene 1),3,-0.00483,2.93,inactive
REG4 (regenerating family member 4),1,-0.884,-3.26,inactive
REG4 (regenerating family member 4),2,-0.654,-1.64,inactive
REG4 (regenerating family member 4),3,0.456,6.18,inactive
DOK1 (docking protein 1),1,2.79,22.6,inactive
DOK1 (docking protein 1),2,-1.06,-4.47,inactive
DOK1 (docking protein 1),3,0.601,7.2,inactive
PARP6 (poly(ADP-ribose) polymerase family member 6),1,-0.226,1.38,inactive
PARP6 (poly(ADP-ribose) polymerase family member 6),2,2.09,17.7,inactive
PARP6 (poly(ADP-ribose) polymerase family member 6),3,0.0788,3.52,inactive
EPB42 (erythrocyte membrane protein band 4.2),1,0.525,6.66,inactive
EPB42 (erythrocyte membrane protein band 4.2),2,-0.135,2.02,inactive
EPB42 (erythrocyte membrane protein band 4.2),3,3.89,30.3,inactive
ORC3 (origin recognition complex subunit 3),1,0.393,5.73,inactive
ORC3 (origin recognition complex subunit 3),2,2.5,20.5,inactive
ORC3 (origin recognition complex subunit 3),3,-0.582,-1.13,inactive
SIAE (sialic acid acetylesterase),1,0.218,4.5,inactive
SIAE (sialic acid acetylesterase),2,1.33,12.4,inactive
SIAE (sialic acid acetylesterase),3,-0.618,-1.38,inactive

Hits (from the list above):
Gene,reagent,G2 robust z-score,"G2 cells, % of GMNN control",activity call
SEPTIN5 (septin 5),3,10.9,80,active
